PubChem BioAssay AID720703 – Peter MacCallum Cancer Centre – 2013
This is a random part of 714 reagents. 50 of all reagents (7%) were called active. 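Chosen pools sit at both extremes, so both low and high scores count as candidates; some pools appear more than once.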 Unmarked entries are inactive. Reagent sequences are not shown.

Test: 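Which kinases alter ERK activation once AT1R is stimulated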 (primary screen)
Cells: immortalised, SV40-transformed mammary epithelial cells from human, with stable expression of tagged AT1R
Reagent: siRNA pool against human genes, 40 nM siRNA pool per well
Duration: 72 h from transfection to lysis and read-out
Challenge: angiotensin II stimulation (dose and duration not given); EGFR inhibitor AG1478 also listed
Read-out: 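ERK1/2 phosphorylation corrected for confluency, given as a robust z-score, mean over two replicate plates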
Reading the numbers: phospho-ERK z-score: higher = more ERK phosphorylation after angiotensin II, relative to plate
Rule for the call: 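The 50 highest-ranked pools, at either end of the score, are marked as chosen for follow-up; the cut-off used is not reported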
Calls: active = picked for secondary screen; inactive = not picked

For ALDH18A1 the deposit lists phospho-ERK z-score, replicate mean 0.28. For TGFBR1 the deposit lists phospho-ERK z-score, replicate mean -0.14. For MAP3K10, the entry reads phospho-ERK z-score, replicate mean 0.54. For PRKCQ, the entry reads phospho-ERK z-score, replicate mean -0.22. Against MAPK11, the values are phospho-ERK z-score, replicate mean 0.49. Depletion of STRADA resulted in: phospho-ERK z-score, replicate mean 5.24 (active).

Silencing of TLK1 gave: phospho-ERK z-score, replicate mean 1.89. After knock-down of IRAK1, the screen gave phospho-ERK z-score, replicate mean 0.9. Against TAOK2, the values are phospho-ERK z-score, replicate mean 1.15. AK7 gave phospho-ERK z-score, replicate mean 0.77. With knock-down of RIOK3 the results were phospho-ERK z-score, replicate mean -0.48. After knock-down of MYLK, the record shows phospho-ERK z-score, replicate mean 0.13.

For DGUOK, the values are phospho-ERK z-score, replicate mean 2.83. For SNRK the deposit lists phospho-ERK z-score, replicate mean 4.4 (active). GUCY2D scored phospho-ERK z-score, replicate mean 1.18. For PGK1 the deposit lists phospho-ERK z-score, replicate mean -0.72. TNK2 showed phospho-ERK z-score, replicate mean 0.34. Against JAK2, the values are phospho-ERK z-score, replicate mean -0.52.

Against TAOK1 the deposit lists phospho-ERK z-score, replicate mean -0.22. PDK1 gave phospho-ERK z-score, replicate mean 0.38. MAP3K20 gave phospho-ERK z-score, replicate mean 1.82. After knock-down of PRKCB, the screen gave phospho-ERK z-score, replicate mean 0.46. After knock-down of CDKL4, the screen gave phospho-ERK z-score, replicate mean 1.03. After knock-down of CDK18, the screen gave phospho-ERK z-score, replicate mean 2.62.

PTK2 showed phospho-ERK z-score, replicate mean 2.07. Knock-down of PRKAR1B resulted in: phospho-ERK z-score, replicate mean 2.74. Against JAK1 the deposit lists phospho-ERK z-score, replicate mean -0.11. MAK scored phospho-ERK z-score, replicate mean -0.82. ALK showed phospho-ERK z-score, replicate mean -0.54. GUCY2C showed phospho-ERK z-score, replicate mean 0.46.

Silencing of DLG3 resulted in: phospho-ERK z-score, replicate mean -0.15. After knock-down of PIKFYVE the results were phospho-ERK z-score, replicate mean 4.65 (active). With knock-down of PRKAG1, the record shows phospho-ERK z-score, replicate mean -0.23. After knock-down of WHR1, the record shows phospho-ERK z-score, replicate mean 0.67. GRK5 gave phospho-ERK z-score, replicate mean 0.62. PTK7 scored phospho-ERK z-score, replicate mean -0.09.

After knock-down of MAP2K1, the screen gave phospho-ERK z-score, replicate mean -0.82. Silencing of SIK3 resulted in: phospho-ERK z-score, replicate mean 0.87.

Copied from the list.
SNRK, phospho-ERK z-score, replicate mean → 4.4 (active)
Entry of MAP2K1 under “phospho-ERK z-score, replicate mean”: -0.82
MAP3K20, phospho-ERK z-score, replicate mean = 1.82
For “phospho-ERK z-score, replicate mean”, GRK5 has 0.62
Under “phospho-ERK z-score, replicate mean”, CDKL4 has 1.03
SIK3, phospho-ERK z-score, replicate mean = 0.87

The listing continues.
With knock-down of RET the results were phospho-ERK z-score, replicate mean -0.55. With knock-down of MAPK15, the screen gave phospho-ERK z-score, replicate mean -0.41. Depletion of TRIM27 gave: phospho-ERK z-score, replicate mean 0.28. MVK showed phospho-ERK z-score, replicate mean 0.5. CDKL2 showed phospho-ERK z-score, replicate mean 0.85. After knock-down of PIK3C2G, the screen gave phospho-ERK z-score, replicate mean 0.7.

After knock-down of INSR, the screen gave phospho-ERK z-score, replicate mean 1.68. With knock-down of CDK5, the screen gave phospho-ERK z-score, replicate mean -1.62 (active). Depletion of GCK resulted in: phospho-ERK z-score, replicate mean 0.11. After knock-down of EXOSC10, the record shows phospho-ERK z-score, replicate mean 0.01. After knock-down of PRKAG2, the screen gave phospho-ERK z-score, replicate mean 1.49. TPD52L3 gave phospho-ERK z-score, replicate mean 0.2.

For MAPK10 the deposit lists phospho-ERK z-score, replicate mean -0.1. PRKD1 scored phospho-ERK z-score, replicate mean -0.84. After knock-down of TYK2 the results were phospho-ERK z-score, replicate mean 0.29. Knock-down of MAPK12 resulted in: phospho-ERK z-score, replicate mean 1.34. After knock-down of PIK3R2, the screen gave phospho-ERK z-score, replicate mean 1.81. Silencing of IRAK2 came out at: phospho-ERK z-score, replicate mean 1.38.

With knock-down of PAK5, the record shows phospho-ERK z-score, replicate mean -0.81. LIMK1 showed phospho-ERK z-score, replicate mean -0.28. Silencing of CDK5R2 gave: phospho-ERK z-score, replicate mean -0.84. After knock-down of MPP3, the record shows phospho-ERK z-score, replicate mean 1.56.
